Test results published in PubChem BioAssay AID1259415 (National Center for Advancing Translational Sciences (NCATS), 2018).
Among all 410,000 compounds or so, about 18,000 (4.4%) were called active. This list was built around the results that the source calls inconclusive (neither active nor inactive); the mix of calls is not that of the screen. Rule as the data show it: active = activity change below about -60%; inconclusive = no clear call, values can overlap the other calls; inactive = above about -39%.

Assay: qHTS Assay for inhibitors of the human cytomegalovirus (HCMV)
Details: HFF cells, HCMV-luciferase reporter, 72 h; at 57.5 µM; stronger effect = lower value
Procedure, shortened: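 Luciferase read-out from HCMV-luciferase-infected HFFs (MOI 1 PFU/cell) 72 h post infection at 37C; compounds added after 16 h cell attachment; activity normalized between buffer-only basal and Salinomycin (10uM) inhibitor controls.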
% is scaled to controls: 0 for no effect and ±100 for the full control effect.

Row | Compound | activity change, negative = inhibition
1 | CC(C)c1nc(SCC(=O)Nc2ccc(N(C)C)cc2)c2ccccc2n1 | active: -77.3%
2 | C/C(=N\NC(=S)NC1CCCCC1)c1c(F)cccc1F | active: -79.5%
3 | CCOc1ccc(/C=C/C(=O)c2c(O)cc(C)oc2=O)cc1 | inconclusive: -52%
4 | Cc1ccc(S(=O)(=O)CCc2nnc(N)s2)cc1C | inactive: 21%
5 | O=C(Nc1ccccc1)Nc1cc([N+](=O)[O-])ccc1F | inconclusive: -53.1%
6 | O=S(=O)(Nc1ccccc1N1CCCCC1)c1ccc(F)cc1F | inconclusive: -43.8%
7 | O=C(Nc1ccc2c(c1)OCO2)Nc1ccc(F)cc1F | inactive: 36.2%
8 | O=C1CCC(=O)N1CC(O)COc1ccccc1 (stereo not drawn) | inconclusive: -58.3%
9 | O=C(CSCc1ccccc1Cl)Nc1c[nH]c(=O)[nH]c1=O | inconclusive: -44.9%
10 | CCOc1ccc(NC(=S)NC(=O)/C=C/c2ccc(OC)c(OC)c2)c([N+](=O)[O-])c1 | inconclusive: -45.3%
11 | CCCOc1ccc(NC(=O)CC2C(=O)N(CC)C(=S)N2CCNC(C)=O)cc1 (stereo not drawn) | inactive: -13.2%
12 | Fc1ccc(-c2cc(-c3ccccc3)nc(-n3cccn3)n2)cc1 | active: -60.6%
13 | COC(=O)C1=C(C)N(c2ccc(C)cc2)/C(=C/c2ccc(O)cc2)C1=O | inconclusive: -47.7%
14 | O=C(CCCCn1c(=O)c2ccccc2n(Cc2ccccc2F)c1=O)NCc1ccccc1Cl | inactive: 10.2%
15 | Cn1c(SCC(=O)N2CCN(Cc3ccccc3)CC2)nnc1-c1ccncc1 | inactive: -32.5%
16 | Cc1ccc(S(=O)(=O)N(C)CC(=O)N2CCOCC2)cc1 | inactive: -0.203%
17 | O=C(Cc1cccc(NC(=O)C2CCCN(C(=O)C3CCCCC3)C2)c1)Nc1cccc(C(=O)N2CCCCC2)c1 (stereo not drawn) | inactive: -8.7%
18 | CNS(=O)(=O)c1cn(CC(=O)N2CCN(c3cccc(Cl)c3)CC2)cc1S(=O)(=O)NC | inactive: 0%
19 | Cc1ccc(/C=C2\C(=O)ON=C2c2ccccc2)o1 | inconclusive: -46.1%
20 | O=C(CCn1c(=S)[nH]c2ccccc2c1=O)NCCSCc1ccccc1 | inconclusive: -45.3%
21 | c1ccc(CO/N=C(\c2ccc(C3CC3)nc2)C2CC2)cc1 | inconclusive: -43.3%
22 | O=C(NNC(=O)c1ccccc1O)c1ccc(-c2ccc([N+](=O)[O-])cc2)o1 | inconclusive: -51.1%

Row | Compound | activity change, negative = inhibition
23 | Cc1cc(NC(=O)c2sccc2C)n(-c2nc3ccccc3[nH]2)n1 | active: -70.1%
24 | Cc1ccc(-n2ncc3c(N4CCCCCC4)ncnc32)cc1C | active: -97.7%
25 | CCOC(=O)C1C(c2ccccc2)N(C)OC1(O)C(F)(F)F (stereo not drawn) | inconclusive: -42.9%
26 | CCOc1cccc(/C=C/c2ccc3cccc(O)c3n2)c1OC | active: -92.5%
27 | CCc1nc2scc(-c3ccc(C)cc3)c2c(=O)n1N | inactive: -20.8%
28 | Cc1ccc(NC(=O)CSc2nc3nn(-c4ccccc4)c(=O)c-3c3n2CCCCC3)cc1F | inconclusive: -48.1%
29 | CCc1cccc(C)c1NC(=S)N(CCN(C)C)C(C)c1ccco1 (stereo not drawn) | inconclusive: -42.7%
30 | CSc1ccccc1NC(=O)COC(=O)CCc1ccccc1 | active: -61.5%
31 | CCO[C@H]1OC(C(=O)NCc2nc3ccccc3[nH]2)=C[C@@H](c2ccccc2)[C@@H]1CCCO | inactive: -4.42%
32 | CCN(CC)S(=O)(=O)c1ccc2c(c1)N(CC(=O)NCC(C)c1ccccc1)C(=O)CO2 (stereo not drawn) | inconclusive: -51%
33 | Cc1c(C(=O)C(=O)N2c3ccccc3CC2C)c2ccccc2n1C (stereo not drawn) | active: -63.7%
34 | CCC(=O)N1CCc2cc(S(=O)(=O)N(CC)c3cccc(C)c3)ccc21 | inactive: -20.7%
35 | COCCNS(=O)(=O)c1ccc(-c2ccc(C)cc2)cc1 | active: -63.5%
36 | CCS(=O)(=O)c1nc(S(=O)(=O)c2ccc(C)cc2)c(N2CCCC(C)C2)s1 (stereo not drawn) | inconclusive: -45.1%
37 | COc1ccc(Cl)cc1NC(=O)C(C)N1CCN(c2ccccn2)CC1 (stereo not drawn) | active: -74.3%
38 | CCOc1ccc(/C=N/OCC(=O)Nc2cc(C)on2)cc1 | inconclusive: -43.7%
39 | CCN(CC)C(=O)c1sc2c(c1C)c(=O)n(CCc1ccccc1)c(=O)n2Cc1cccc(Cl)c1 | inconclusive: -56.6%
40 | CCn1nc(C(=O)Nc2nc3ccc(C)cc3s2)c2ccccc2c1=O | inactive: -23.7%
41 | O=C(NCc1ccco1)C1CCCCC1 | inconclusive: -46.9%
42 | CCC(=O)N/C(=N/c1nc(C)cc(C)n1)Nc1ccc(OC)cc1 | inconclusive: -44.7%
43 | Cc1onc(-c2ccccc2Cl)c1C(=O)NNC(=O)c1nn(C)cc1Cl | inconclusive: -51%
44 | COc1ccc(NC(=O)c2cc(Br)ccc2Cl)c([N+](=O)[O-])c1 | active: -63.4%

Row | Compound | activity change, negative = inhibition
45 | CCOC(=O)C1CCCN(c2c(C(=O)c3ccccc3)cnc3ccccc23)C1 (stereo not drawn) | inconclusive: -43.3%
46 | CCCNC(=O)c1ccc(N2CCC3(CC2)CC(c2cccc(Br)c2)=NO3)c([N+](=O)[O-])c1 | inconclusive: -56.9%
47 | OCC[C@@H]1C[C@@H](O)[C@H](O)[C@@]2(OCc3ccccc32)O1 | inconclusive: -51.5%
48 | Cc1ccc(N(C(=O)c2csnn2)C(C(=O)NC2CCCC2)c2ccncc2)c(C)c1 (stereo not drawn) | inconclusive: -47.8%
49 | Cc1ccc(NC(=O)c2nc(S(=O)(=O)Cc3ccccc3)ncc2Cl)cc1 | active: -97.8%
50 | Cc1cccc(OCC(=O)Nc2ccc3oc(=O)ccc3c2)c1C | inconclusive: -43.5%
51 | COc1ccc(O)c(CNn2c(-c3ccc(Br)cc3)nc3ccccc3c2=O)c1 | active: -74.3%
52 | O=C(NCC1CCCCC1)c1csc([C@@H]2C[C@H](O)[C@@H](CO)O2)n1 | inconclusive: -46.9%
53 | CCOC(=O)N1CCN(C(=O)c2ccc3c(c2)N(Cc2ccccc2)CCS3)CC1 | inconclusive: -42.4%
54 | O=C(CSc1nnc(CCc2nc3ccccc3[nH]2)n1-c1ccccc1)NCc1ccccc1 | inactive: 15.6%
55 | O=C(O)/C(=C1\OC(=O)c2ccccc21)c1ccccc1 | inactive: -12.2%
56 | CCN(Cc1ccncc1)C(=O)CC1C(=O)NCCN1Cc1ccc(F)c(F)c1 (stereo not drawn) | active: -77.9%
57 | O=C1C2CCCN2C(c2cccnc2)N1c1ccc(Cl)cc1 (stereo not drawn) | inactive: -15.9%
58 | CNC(=O)C1CC(=O)N(c2ccc(OCC(=O)Nc3ccc(F)cc3)cc2)C1 (stereo not drawn) | inconclusive: 0%
59 | Cc1ccc(NC(=O)C(c2ccc(Cl)cc2Cl)N2CCCC2)cc1 (stereo not drawn) | active: -64.9%
60 | COC(=O)c1c(C)sc(-c2c(-c3ccc4c(c3)OCCO4)[nH]c3c2c(=O)[nH]c(=O)n3C)c1O | inactive: 33.8%
61 | O=C1NCC(COc2ccc(Cl)cc2)O1 (stereo not drawn) | inconclusive: -52.9%
62 | COc1ccc(CCn2c(=N)c(C(=O)NCc3ccco3)cc3c(=O)n4cccc(C)c4nc32)cc1 | active: -83.4%
63 | O=C(NCc1ccccc1)NC1CC2CCC(C1)N2Cc1ccco1 (stereo not drawn) | inactive: 43.4%
64 | O=C(Nc1nc(-c2ccccc2)c(C(=O)c2ccccc2)s1)c1ccc(S(=O)(=O)N2CCCCC2)cc1 | inconclusive: -40.2%
65 | O=C(Oc1c(CN2CCOCC2)cc(Cl)c2cccnc12)c1cccs1 | active: -98.2%
66 | COc1cccc(NC(=O)c2cccc(S(=O)(=O)N3CCN(Cc4ccccc4)CC3)c2)c1 | inactive: -15.2%

Row | Compound | activity change, negative = inhibition
67 | CCS(=O)(=O)NCCc1csc2nc(-c3ccc(C)cc3)nn12 | inactive: -8.78%
68 | Cc1ccc(-c2cc(C(=O)N3CCC(C)CC3)c3ccccc3n2)cc1 | active: -71.5%
69 | CCCS(=O)(=O)c1nc(S(=O)(=O)c2ccc(Cl)cc2)c(N2CCC(O)CC2)s1 | inconclusive: -54.2%
70 | CCOC(=O)CSc1ccc2nnc(-c3cccnc3)n2n1 | inconclusive: -45%
71 | Cc1ccc(CC(=O)Nc2ccc(F)c([N+](=O)[O-])c2)cc1C | inconclusive: -49.9%
72 | COc1ccccc1-c1nnc(NC(=O)c2ccccc2F)o1 | inactive: 124%
73 | COc1ccc(OCC(=O)Nc2ccc3c(c2)CCC3)cc1 | inactive: -23.9%
74 | CCOC(=O)c1cnc(SCC(=O)Nc2cc(OC)ccc2OC)nc1N | inactive: 6.73%
75 | COc1ccc(CN2C(=O)NC(=O)/C(=C/c3ccoc3)C2=O)cc1 | inconclusive: -56.3%
76 | Cc1ccc(C)c(NC(=O)Nc2csc3c2CCCC3)c1 | inconclusive: -48.7%
77 | COc1ccc(NC(=O)CN2C(=O)C(C)N=C(c3ccccc3F)c3cc(Cl)ccc32)c(OC)c1 (stereo not drawn) | inconclusive: -44.7%
78 | O=C(O/N=C1\C(=O)N(c2ccccc2)c2ccccc21)C1CC1 | inconclusive: -48.1%
79 | COc1cccc(C(=O)NCCN2CCN(c3ccc(Cl)cc3)CC2)c1 | inconclusive: -42%
80 | Cc1nn2c(-c3cccnc3)ccnc2c1-c1ccccc1 | inconclusive: -46.1%
81 | C=C1SC(Nc2c(C)cccc2C)=NC12CCCCC2 | inconclusive: -47.2%
82 | CN=c1scc(-c2ccc(OC)cc2)n1/N=C(\C)c1cccnc1 | inconclusive: -48.7%
83 | O=c1ccc2cc(S(=O)(=O)NCc3ccccc3)ccc2[nH]1 | inconclusive: -42.3%
84 | Cc1ccc(C(=O)CSc2nnc(CNc3nc(-c4ccccc4)cs3)n2C)cc1 | inconclusive: -43.1%
85 | Cc1c(C(=O)N2CCN(S(=O)(=O)c3ccccc3)CC2)oc2ccccc12 | inconclusive: -45.9%
86 | O=C(N/N=C/c1ccc2nccnc2c1)c1ccc(Br)cc1 | inactive: -23.5%
87 | CCCCOc1ccc(C(=O)NCCc2csc(-c3ccc(OC)cc3)n2)cc1 | active: -60.8%
88 | Cc1cc(C)nc(N/N=C/C2=C(N3CCOCC3)C(=C/c3ccccc3)/CC2)n1 | inconclusive: -53.3%

From no. 69 up to 71, copied from above:
Row | Compound | activity change, negative = inhibition
69 | CCCS(=O)(=O)c1nc(S(=O)(=O)c2ccc(Cl)cc2)c(N2CCC(O)CC2)s1 | inconclusive: -54.2%
70 | CCOC(=O)CSc1ccc2nnc(-c3cccnc3)n2n1 | inconclusive: -45%
71 | Cc1ccc(CC(=O)Nc2ccc(F)c([N+](=O)[O-])c2)cc1C | inconclusive: -49.9%
